Source: paper PMC10163288
This is one part of the list.

B1: il2ra_site1_2b5i_sap_9_mot_HHH_b1_06833_000000178_0001_1_19_H_._69c0e03702be80a53d24f68cf15becc8_0001_0001_0000100006_0000001_0_0001_af2pred_dldesign_0_af2pred (protein)
chain: SSSSSDEEVIARAKALAEEALKKATSPKDKKIVEWGLEELDETKDPQVARQLLDFVERLLKSSSS
B2: il2ra_site1_2b5i_sap_13_mot_HHH_b1_00983_000000007_0001_1_17_H_._HHH_b1_06195_0001_0000800024_0000001_0_0001 (protein)
chain: SSSSNRAREILFEAARESVEEAEEEGDEETLEKLYEEIRRYLELHGSELLKELLEHIEKLLSSSS
B3: il2ra_site2_3nfp_normal_mot_HHH_b2_05976_000000001_0001_22_38_H_._HHH_b2_06641_0001_0000100007_0000001_1 (protein)
chain: SSSSDVEERVEELLQEAERLLEEGNPEEARKLVREAALLAAEARDHELFALVQEVLHKIVNSSSS
B4: il2ra_site1_2b5i_sap_13_mot_143f78fc0439b137266e145e81963a82_0001_1_af2_000000250_0001_37_51_H_._0e4f66a3c4b070984708d3e1d5382b02_0001_1_af2_0001_0000200006_000 … (protein)
chain: SSSSAREEVERLIKEAKELLEQGKLREALKKLEEALKVAAAAEDEELYEEVEKLAEEALKSSSSS
B5: il2ra_site1_3nfp_sap_9_mot_HHH_b1_01335_af2_000000258_0001_39_53_H_._HHH_b2_03358_0001_0000500034_0000001_0_0001 (protein)
chain: SSSSNEAMRLVQEALRLARRHDDHEASQELYRLIHEALRKGDPELLREARELAEEIIEELGSSSS
B6: il2ra_site1_3nfp_normal_mot_HHH_b2_03857_af2_000000084_0001_42_56_H_._HHH_b2_02902_0001_0000400015_0000001_0_af2pred_0001_af2pred (protein)
chain: SSSSSREEAEEVIKLLRLLEKLLIEGDEEKVEEVREELEKLIKELNSRSAELYLRLLEERHSSSS
B7: il2ra_site2_2erj_normal_mot_HHH_b1_08609_af2_000000264_0001_43_56_H_._HHH_b2_06230_af2_0001_0000200028_0000001_0 (protein)
chain: SSSSNEELKEIFKLADALLEAIQNNDEELFEKIYEEAEKLIEESNTENAEEILRWLERHFNSSSS
B8: il2ra_site1_1z92_sap_11_mot_HHH_b2_00249_af2_000000052_0001_39_52_H_._HHH_b2_00616_af2_0001_0000400013_0000001_1_0001_af2pred_0001_af2pred (protein)
chain: SSSSSEKRKEALELFEEANELFKRGNDEEAQELLRRALELAEEAGNRVLARAIEQALEDAESSSS
B9: il2ra_site2_2erj_sap_25_mot_HHH_b1_00821_000000158_0001_1_20_H_._HHH_b2_03062_af2_0001_0000100003_0000001_0_0001 (protein)
chain: SSSSNEELRELYRLLVEALRLLTEGNPEKAEEVLREAEELAERLGSDNAKEAIEQLKKLVRSSSS
B10: il2ra_site1_3nfp_sap_10_mot_922575b2e9738a49cb663a995786872c_0001_af2_000000130_0001_1_15_H_._HHH_b1_08594_0001_0000300023_0000001_0_0001_af2pred_0001_af2pred (protein)
chain: SSSSDILREIIKLEKELREALKNENEEKARELLEELRRLIEEANDPVARRILEIAQKKVEKSSSS
B11: il2ra_site2_3nfp_normal_mot_HHH_b1_04997_af2_000000181_0001_40_57_H_._HHH_b1_02356_0001_0000700006_0000001_0 (protein)
chain: SSSSSSDEESFEYAKAAAILAGDEELLKEVEELEERYRQEGDPEYQRLVARLALEIAFSSSSSSS
B12: il2ra_site2_3nfp_sap_25_mot_ems_3hM_287_af2_000000177_0001_46_64_H_._HHH_b1_07095_0001_0000400043_0000001_0_0001 (protein)
chain: SSSSDEAREEVEKLVEQAEELLKRGNPEEARKALAEAAHIAFENNDFEAFAAVAELLNEILSSSS
B13: il2ra_site1_1z92_normal_mot_HHH_b1_05003_000000111_0001_1_20_H_._HHH_b2_04319_af2_0001_0000300020_0000001_0_af2pred_dldesign_0_af2pred (protein)
chain: SSSSPRQELYQLLLELNKALQAGNKEEFEKLLKKATELAEKLESKVVLKLLEKAKEQLEEESSSS
B14: il2ra_site1_3nfp_normal_mot_HHH_b1_04560_000000028_0001_23_40_H_._HHH_b2_04432_0001_0000500008_0000001_1 (protein)
chain: SSSSSDLEAAQEAYKLLREALKISDEEEVEELLRRALELLEEAGDERNLKSLHKAVEHFNSSSSS
B15: il2ra_site2_3nfp_normal_mot_HHH_b1_05627_af2_000000038_0001_43_56_H_._HHH_b2_07596_0001_0000200026_0000001_0 (protein)
chain: SSSSSKQEEYLRAALEVLREAFEFGDRESFEKQAEAARELAEALNDPEVLEEVEELLRELSSSSS
B16: il2ra_site2_3nfp_normal_mot_HHH_b1_04338_af2_000000107_0001_41_56_H_._HHH_b2_06761_0001_0000400039_0000001_0 (protein)
chain: SSSDESEEIFERAEKELRRLLEEGNREEASQLTFEAAHELKELGDDRLVLKLYAILQRALFSSSS
B17: il2ra_site1_2b5i_normal_mot_d4f58537f9d5e1f361f6ea2252377c33_0001_1_000000167_0001_1_13_H_._HHH_b1_03920_0001_0000100001_0000001_0 (protein)
chain: SSSSDALERLAKNIFEILEKALELGNEKAIERWLEMLERQAEDTNDELARELLREIREKLSSSSS
B18: il2ra_site1_2b5i_sap_15_mot_HHH_eva_0271_af2_000000019_0001_1_17_H_._b0be08dbeb19038e97ce33ab5425b229_0001_af2_0001_0000200010_0000001_0_0001_af2pred_dldesign_0 … (protein)
chain: SSSSNPLAEEARRLFLKANELYQAGKEEEAKELLKKALEIAKKGKCNSLIKAIELALKNLSSSSS
B19: il2ra_site2_3nfp_sap_22_mot_HHH_b1_07242_000000112_0001_19_39_H_._dbaaacb3030748eb94c4e142aa50db7a_0001_0001_0000400037_0000001_0_0001_af2pred_0001_1_af2pred_sw … (protein)
chain: SSSDEEERIRELLKEIEELLKEGNDEEAEELLKEAKKLIRELGDLELLEELLELEELVEEKSSSS
B20: il2ra_site2_3nfp_sap_18_mot_HHH_b2_04503_af2_000000107_0001_38_55_H_._HHH_b1_05537_0001_0000700018_0000001_0_0001 (protein)
chain: SSSSDKQEEYIRIAIEIARRAAEQGDPEVARRILETVFQAAEDANDEELLKEIEELLEELSSSSS
B21: il2ra_site1_1z92_normal_mot_HHH_b1_03515_000000289_0001_1_19_H_._HHH_b2_05697_0002_0000300039_0000001_0_af2pred_0001_af2pred_1 (protein)
chain: SSSSNERLERQLKKLVESAVELAGLSEEQKEELEELAKELAERGVDFEEAIRIVNKLALELSSSS
B22: il2ra_site2_3nfp_normal_mot_HHH_b2_05281_000000198_0001_39_56_H_._HHH_b2_06891_0001_0000100001_0000001_0 (protein)
chain: SSSSSSRERVEELLRQAEELYERGNPEEAQKLLKEATHIAYETGDHEAFFLVAEVAFRLINSSSS
B23: il2ra_site2_3nfp_sap_17_mot_HHH_b2_03978_000000149_0001_1_20_H_._HHH_b2_01702_0001_0000500046_0000001_0_0001_af2pred_0001_af2pred (protein)
chain: SSSSSDQEVRELLEEARELLEEGDPEEAEEVLLRAAEIAAELRNFELFAEVANLLEEILRSSSSS
B24: il2ra_site2_3nfp_sap_14_mot_HHH_b1_04980_af2_000000126_0001_22_39_H_._HHH_b2_07179_0001_0000200006_0000001_1_0001_af2pred_0001_1_af2pred_swapped (protein)
chain: SSSSSEEEERVEELIEKAEKLIKEGNPEEAEEVLAEAFRLALELNNEELLLLILELLERLRSSSS

Each binder was assayed against il2ra, P01589 (assay: yeast display titration).

Apparent Kd, inactive:
B1 no binding seen
B2 no binding seen
B3 no binding seen
B4 no binding seen
B5 no binding seen
B6 no binding seen
B7 no binding seen
B8 no binding seen
B9 no binding seen
B10 no binding seen
B11 no binding seen
B12 no binding seen
B13 no binding seen
B14 no binding seen
B15 no binding seen
B16 no binding seen
B17 no binding seen
B18 no binding seen
B19 no binding seen
B20 no binding seen
B21 no binding seen
B22 no binding seen
B23 no binding seen
B24 no binding seen
